Values from PubChem BioAssay AID1508597 (Cure First, 2020).
This is an unselected part of the about 2,100 reagents, in one setting of the screen. 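Calls flag viability under 80% in either arm, not effects specific to rucaparib; the reference for percent is not stated.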 The record does not give: the 100% reference.

Screen: 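Knock-downs altering ovarian cancer cell survival with or without PARP inhibitor rucaparib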 (primary screen)
System: human ovarian carcinoma lines grown from tumours: OCI-P5x (papillary serous) and OCI-C5x (clear cell)
Knock-down reagent: siRNA pool against human genes, 1.25 pmol siRNA per well
Timing: 72 h or 96 h, depending on the cell culture
Treatment: rucaparib 20 µM (about IC30) or vehicle, present until read-out
Rucaparib or vehicle: Rucaparib
Cell line: OCI-P5x (serous)
Measured: 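Luminescent ATP-based viability assay read 72 or 96 h after transfection, depending on culture, given as normalised percent viability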
Reading the numbers: viability, normalised: higher = more viable cells remaining
Rule for the call: 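a well counts as a hit if its normalised viability is under 80 percent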
Calls: active = viability under 80%; inactive = viability 80% or more

target gene	technical replicate	viability, normalised (%)	Outcome
PMS1	1	82.2	inactive
PMS1	2	84.7	inactive
PMS1	3	67.6	active
SIRT5	1	53.2	active
SIRT5	2	38.4	active
SIRT5	3	55.3	active
PMS2	1	162	inactive
PMS2	2	179	inactive
PMS2	3	141	inactive
ZGPAT	1	66.7	active
ZGPAT	2	71.2	active
ZGPAT	3	46.9	active
BDP1	1	77.6	active
BDP1	2	79	active
BDP1	3	81.2	inactive
BAZ1A	1	79.2	active
BAZ1A	2	101	inactive
BAZ1A	3	83	inactive
GLI1	1	50.6	active
GLI1	2	62.5	active
GLI1	3	66	active
NANOG	1	57.8	active
NANOG	2	53.7	active
NANOG	3	69.9	active

Copied from the entries so far, 2 entries:
target gene	technical replicate	viability, normalised (%)	Outcome
BAZ1A	3	83	inactive
GLI1	1	50.6	active
